Test results as given in the supplement of paper PMC12578635.
This is one part of the list. Cut-off read from the data, not from the text of the source: active = 150% or more and inactive = the rest. Many values rest on one well or one pass, so single values are uncertain.

These compounds were tested on Staphylococcus aureus JE2-lux inside RAW 264.7 macrophages (assay: intracellular bacterial bioluminescence relative to DMSO vehicle; higher = higher intracellular bacterial metabolic activity). Conditions: 10 µM; treatment time 4 h; gentamicin 50 µg/ml.

Intracellular bacterial bioluminescence, inactive:
COc1ccc(C(=O)NCc2cccnc2)cc1S(=O)(=O)N1CCOCC1 88.7%
c1csc(CSc2nnc3sc4ccccc4n23)c1 91.4%
O=C(CCN1C(=O)c2ccccc2S1(=O)=O)Nc1ncc([N+](=O)[O-])s1 66.2%
CCOC(=O)c1sc(-c2ccccc2)cc1NC(=O)CCS(=O)(=O)c1ccccc1 114%
O=C(Cc1csc2nc(-c3ccc(F)cc3)cn12)Nc1ccc(F)c(F)c1 91.1%
Cc1cc(NCc2ccccc2Cl)n2nc(Cc3cccc(F)c3)nc2n1 66.8%
CCOC(=O)c1ccc(NC(=O)CSc2nncn2-n2cccc2)cc1 71%
Cc1nnsc1C(=O)Nc1ccccc1C(F)(F)F 109%
CCN1CCN(CC(=O)Nc2ccc(C)cc2C)C(=O)C1=O 84.2%
Cc1ccc2nc(SC(C)c3ccccc3)nc(=O)n2c1 (stereo not given) 73.9%
CCOc1ccccc1NC(=O)C1CCN(c2ncnc3oc(C)c(C)c23)CC1 88.6%
O=C(CCCOc1ccc(Cl)cc1Cl)N/N=C1/C(=O)Nc2ccccc21 109%
CCCCC(=O)Nc1ncc(Cc2ccc(Cl)c(Cl)c2)s1 54%
O=C(Cc1ccccc1)NNC(=O)CC1SC(=O)NC1=O (stereo not given) 120%
O=C1c2ccncc2C(=O)N1CNc1ccccn1 95.8%
CCN(CC)CCN1C(=O)C(O)=C(C(=O)c2ccc(OC)cc2C)C1c1ccc(O)cc1 (stereo not given) 116%
CCc1ccccc1NC(=O)CSC1=C(C#N)C(c2ccc(C)cc2)C2=C(CCCC2=O)N1 (stereo not given) 105%
CC(C)Oc1ccc(C(=O)Nc2cccc3c2C(=O)c2ccccc2C3=O)cc1 84.9%
Cc1cc(C)c2ccc(NC(=O)c3c(-c4ccncc4)noc3C)nc2n1 83.9%
CCC(Cc1ccccc1)Nc1nn2nnnc2c2ccccc12 (stereo not given) 87%
O=C(Nc1ccc(F)cc1F)N1CCc2nc(N3CCCCC3)ncc2C1 50%
COc1cccc(C(=O)Nc2cc(=O)n(C)c(=O)n2C)c1 97.2%
CCc1nnc(NC(=O)c2nn(-c3ccc(C)cc3)c3c(=O)n(C)cnc23)s1 84.9%
O=C(CSc1ccc(-c2ccco2)nn1)Nc1cccc(F)c1 76.6%
Cc1cccc(-n2nnc(C(=O)Nc3ccccc3)c2C)c1 73%
COCCNc1nc(N)c([N+](=O)[O-])c(Nc2cccc(Cl)c2)n1 67.8%
Cc1cc(C)c2cc(C#N)c(NCCCNS(=O)(=O)c3ccccc3C(F)(F)F)nc2c1 122%
Cc1ccc(S(=O)(=O)n2nc(-c3ccccc3Cl)nc2N)cc1 85.4%
O=C(NC1CCCCC1)c1c(O)nc2sccn2c1=O 107%
Cn1c(=O)c2[nH]c(SCC(=O)c3ccc4c(c3)OCCO4)nc2n(C)c1=O 125%
Cc1cc(Nc2ccc(F)c(Cl)c2)n2ncnc2n1 105%
O=C(Cc1ccc(-c2ccccc2)cc1)Nc1nnc2n1CCS2 114%
O=C1CN(S(=O)(=O)c2ccc(Br)cc2)c2ccccc2N1 101%
CCOC(=O)c1sc(NC(=O)C2=COCCO2)cc1C 108%
COc1cccc(CNC(=O)c2cc3n(n2)CCCN(Cc2ccccc2)C3=O)c1OC 110%
Nc1cc(-c2ccco2)nn(CC(=O)N2CCOCC2)c1=O 123%
Cc1cccc2cc(CN(Cc3ccccc3)C(=O)c3ccccc3F)c(Cl)nc12 88%
COC(=O)c1sc2ccccc2c1NC(=O)c1ccc2ncsc2c1 60%
CCc1cc2c(N3CCC(C(=O)NCCCN4CCN(C)CC4)CC3)ncnc2s1 103%
Cc1cc(C)nc(SCCS(=O)(=O)c2nc3ccccc3s2)n1 2.4%
COc1ccccc1CNC(=O)c1nc(N2CCCC2)c2c(C)c(C)n(-c3cccc(Cl)c3)c2n1 85.9%
CCc1nnsc1C(=O)Nc1ncc([N+](=O)[O-])s1 92.8%
Cc1nc2c(ccc3nc(NC(=O)c4ccc(Br)s4)sc32)s1 106%
COc1cc(C2C(C(=O)c3cccs3)=C(O)C(=O)N2c2nncs2)ccc1O (stereo not given) 112%
Cc1csc(-c2csc(S(=O)(=O)N3CCC(C)CC3)c2)n1 30.4%
CCOC(=O)c1sc(NC(=O)C2CC2)cc1C 112%
CCOc1ccc(NC(=O)c2cccnc2-c2ccsc2)cc1 85.9%
Cc1ccc2cc(C#N)c(NCCNS(=O)(=O)c3cccc4ccccc34)nc2c1 44.9%
O=C(c1noc2ccc(S(=O)(=O)N3CCN(Cc4ccc5c(c4)OCO5)CC3)cc12)N1CCCC1 62.3%
Cc1nn(-c2nc3ccccc3[nH]2)c2c1C(c1ccccc1C(F)(F)F)CC(=O)N2 (stereo not given) 74.7%
Cc1cc(C)c2nc(NNC(=O)COc3ccccc3)sc2c1 80.7%
O=C(O)c1cc(-c2ccc(-c3ccc(F)cc3)o2)nc2ccccc12 103%
O=C(CC1Nc2ccccc2NC1=O)Nc1ccc2c(c1)OCO2 (stereo not given) 56.7%
O=C(O)CSc1ccc(S(=O)(=O)C(F)(F)F)cc1[N+](=O)[O-] 133%
Cc1c(C(=S)Nc2ccccc2)cnn1-c1ccc([N+](=O)[O-])cc1 78.4%
CC(=O)c1cccc(NC(=O)Nc2nc(SCc3c(F)cccc3Cl)ns2)c1 93.4%
CCOC(=O)c1c(C)oc2c1/C(=C/NCc1ccccn1)C(=O)c1ccccc1-2 36.2%
O=C(COc1ccccc1)Nc1nc2ccccc2s1 93.9%
COCCCNC(=O)CN1CCN(c2ncc(NC(=O)c3ccc(Cl)cc3)cc2C(=O)O)CC1 105%
CC(=O)c1ccc(NC(=O)c2ccc(S(=O)(=O)N3CCC(C)CC3)cc2)cc1 75.7%
Cc1cc(C)cc(-n2nc3c(c2NC(=O)/C=C\c2ccc4c(c2)OCO4)CSC3)c1 83.9%
O=C(O)c1cccnc1SC1CC(=O)N(c2ccc(Cl)cc2[N+](=O)[O-])C1=O (stereo not given) 94.4%
Fc1ccc(-c2ccc(/C=N/n3cnnc3)o2)cc1 97.6%
O=C(NCc1ccc(F)cc1)C1CCN(C(=O)Nc2cccc(Cl)c2)CC1 79.9%
CC(=O)Nc1cccc(NC(=O)C(=O)NCCSc2nc(-c3ccccc3)c[nH]2)c1 109%
COc1ccccc1CNC(=O)C1c2ccccc2C(=O)N1Cc1cccnc1 (stereo not given) 132%
CCCn1c(=N)c(C(N)=S)cc2c(=O)n3cccc(C)c3nc21 127%
O=C(CSc1nnc2c3ccccc3nc(Cc3ccccc3)n12)Nc1nccs1 128%
COc1ccccc1CCNC(=O)c1c(O)nc2cc(C)ccn2c1=O 118%
CCN1C(=O)c2cccc3c(S(=O)(=O)Nc4ccccc4OC)ccc1c23 137%
CCSc1nnc(NC(=O)CSc2nnc(C)c(=O)n2N)s1 81.3%
O=C1CCc2cc(S(=O)(=O)NCC(c3ccccc3)N3CCOCC3)ccc2N1 (stereo not given) 103%
Cc1ccc2nnc(-c3ccccc3)c(C(=O)NCc3ccc4c(c3)OCO4)c2c1 81%
CCc1cccc(C)c1NC(=O)Cn1c(=O)c2cccnc2n(-c2ccccc2)c1=O 97.1%
O=C(CSc1nc2ccccc2[nH]1)c1cccs1 97.9%
CCN(CC)CCCNc1ncnc2sc3c(c12)CC(C)CC3 (stereo not given) 120%
Cc1ccc(NC(=O)N2CCC(n3cnc4cccnc43)CC2)cc1Cl 35.9%
O=C(CSc1nnc2[nH]c(=O)ccn12)NCc1ccccc1Cl 104%
COc1ccnc(Cn2nc3c4c5c(sc4ncn3c2=O)CC(C)CC5)c1OC (stereo not given) 36.8%
CCN(C(=O)c1ccccn1)c1nc2c(s1)CCc1oc(C)cc1-2 90.2%
O=C(Nc1ccc2c(c1)CCC2)c1cccc2nccnc12 94.8%
COc1ccc(NC(=O)CSc2nnc3c(C)cc4ccccc4n23)cc1 97.7%
Cc1ccc(N2C(=O)c3cc4ccsc4n3CC2(C)C(=O)NC2CCCC2)c(Cl)c1 (stereo not given) 70.7%
COc1ccc2sc(Nc3cccc(Br)c3)nc2c1 136%
COCCNC(=O)c1cnc2c(OC)cc(OC)cc2c1O 110%
Cc1ccc(C)c(S(=O)(=O)Nc2ccc(O)c3ccccc23)c1 85.8%
O=C1N/C(=N/c2ccc(O)cc2)S/C1=C\c1cccnc1 94.2%
CC(=O)Nc1ccc(NS(=O)(=O)c2c[nH]c(=O)[nH]c2=O)cc1 112%
COc1ccc(Nc2ncnc3sc(C(=O)O)c(C)c23)cc1Cl 102%
Cc1sc2nc(C(C)C)n(C3CCN(C(=O)c4ccco4)CC3)c(=O)c2c1C 30.3%
Cc1ccccc1C1C2=C(COC2=O)Nc2c1c(=O)[nH]c(=O)n2C (stereo not given) 138%
COC(=O)C1CCN(C(c2ccc(Cl)c(Cl)c2)c2sc3nc(C)nn3c2O)CC1 (stereo not given) 97.5%
Cc1cc(Sc2ccc(N)cc2)n2nc(C)nc2n1 98.2%
NC(=O)C1CCCN(C(=O)c2ncoc2-c2cccc(F)c2)C1 (stereo not given) 112%
COc1ccc(S(=O)(=O)NCc2ccco2)cc1[N+](=O)[O-] 103%

Taken from above, 5 compounds:
Intracellular bacterial bioluminescence, inactive:
O=C1N/C(=N/c2ccc(O)cc2)S/C1=C\c1cccnc1 94.2%
CC(=O)Nc1ccc(NS(=O)(=O)c2c[nH]c(=O)[nH]c2=O)cc1 112%
COc1ccc(Nc2ncnc3sc(C(=O)O)c(C)c23)cc1Cl 102%
Cc1sc2nc(C(C)C)n(C3CCN(C(=O)c4ccco4)CC3)c(=O)c2c1C 30.3%
Cc1ccccc1C1C2=C(COC2=O)Nc2c1c(=O)[nH]c(=O)n2C (stereo not given) 138%

Part of the list above in order of formula weight, falling:
Intracellular bacterial bioluminescence, inactive:
Cc1ccc(S(=O)(=O)n2nc(-c3ccccc3Cl)nc2N)cc1 85.4%
NC(=O)C1CCCN(C(=O)c2ncoc2-c2cccc(F)c2)C1 (stereo not given) 112%
O=C(Nc1ccc2c(c1)CCC2)c1cccc2nccnc12 94.8%
